Laboratory results reported in patent publication US20130157945A1.
These are yes or no findings as the source states them, for the method shown. For part of these data: In cells and extracts the contact can be indirect. Some results given as binding are weak or reduced against the parent protein; the word gives no strength.

The chains behind the UniProt entries cited, without tags or fusion partners. Where a name states a change or a piece, a line headed by the entry shows the natural chain unless it says otherwise. Residues count along the entry.
UniProt P20333: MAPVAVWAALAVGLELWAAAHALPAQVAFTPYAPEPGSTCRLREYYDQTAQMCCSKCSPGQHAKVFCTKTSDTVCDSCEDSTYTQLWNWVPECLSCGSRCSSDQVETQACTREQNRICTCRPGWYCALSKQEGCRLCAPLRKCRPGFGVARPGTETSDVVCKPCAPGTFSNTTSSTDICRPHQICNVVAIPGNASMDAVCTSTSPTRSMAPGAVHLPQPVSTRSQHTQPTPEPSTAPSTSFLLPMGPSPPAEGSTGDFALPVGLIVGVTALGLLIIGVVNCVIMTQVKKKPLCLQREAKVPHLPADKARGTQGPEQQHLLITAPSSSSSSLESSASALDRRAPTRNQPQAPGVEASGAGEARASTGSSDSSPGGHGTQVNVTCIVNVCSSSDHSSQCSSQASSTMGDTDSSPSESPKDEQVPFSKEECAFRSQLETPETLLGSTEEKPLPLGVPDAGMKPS
TNFR2 (endogenous, human chondrocytes): residues 23-461 of P20333
extracellular domain of TNFR2 (TNFR2ECD), recombinant, R & D System: residues 23-257 of P20333
UniProt P19438, residues 30-211: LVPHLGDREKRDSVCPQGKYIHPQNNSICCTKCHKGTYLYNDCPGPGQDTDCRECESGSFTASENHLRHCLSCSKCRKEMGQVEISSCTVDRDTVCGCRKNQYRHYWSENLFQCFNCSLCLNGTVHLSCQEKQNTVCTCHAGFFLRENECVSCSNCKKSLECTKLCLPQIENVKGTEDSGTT
UniProt P28799: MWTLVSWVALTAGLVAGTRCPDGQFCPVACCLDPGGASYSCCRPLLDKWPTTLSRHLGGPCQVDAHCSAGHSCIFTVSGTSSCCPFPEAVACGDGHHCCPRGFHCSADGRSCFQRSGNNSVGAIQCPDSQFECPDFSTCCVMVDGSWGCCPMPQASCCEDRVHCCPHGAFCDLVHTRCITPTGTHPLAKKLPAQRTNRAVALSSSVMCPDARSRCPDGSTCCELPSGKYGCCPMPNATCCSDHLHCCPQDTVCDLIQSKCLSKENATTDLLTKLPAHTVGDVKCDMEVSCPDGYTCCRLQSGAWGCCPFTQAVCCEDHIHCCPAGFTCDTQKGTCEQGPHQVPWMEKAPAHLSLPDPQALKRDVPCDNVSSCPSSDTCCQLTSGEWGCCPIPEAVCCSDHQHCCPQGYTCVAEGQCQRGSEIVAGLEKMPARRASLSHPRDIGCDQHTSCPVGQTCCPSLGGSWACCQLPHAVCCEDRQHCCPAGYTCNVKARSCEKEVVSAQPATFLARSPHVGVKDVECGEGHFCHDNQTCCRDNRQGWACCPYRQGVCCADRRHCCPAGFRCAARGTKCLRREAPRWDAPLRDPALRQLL

What was measured:
[1] = molecular target: TNFR2 (endogenous, human chondrocytes) (human) (UniProt P20333); assay: co-immunoprecipitation with anti-TNFR2, immunoblot with anti-GEP
[2] = molecular target: TNFR2 (endogenous, human chondrocytes) (human) (UniProt P20333); assay: co-immunoprecipitation with anti-TNFR2, immunoblot with anti-GEP (FIG. 2B)
[3] = molecular target: extracellular domain of TNFR1 (TNFR1ECD), recombinant, R & D System (UniProt P19438); assay: solid-phase binding assay (FIG. 3)
[4] = molecular target: extracellular domain of TNFR2 (TNFR2ECD), recombinant, R & D System (UniProt P20333); assay: solid-phase binding assay (FIG. 3)
[5] = molecular target: extracellular domain of TNFR1 (TNFR1ECD), recombinant, R & D System (UniProt P19438); assay: solid-phase binding assay, 500 ng GEP coated, 5-500 ng TNFR1ECD, detected with anti-TNFR1 and HRP secondary antibody
[6] = molecular target: extracellular domain of TNFR2 (TNFR2ECD), recombinant, R & D System (UniProt P20333); assay: solid-phase binding assay, 500 ng GEP coated, 5-500 ng TNFR2ECD, detected with anti-TNFR2 and HRP secondary antibody

Measured: binding

GEP (endogenous, extracts of primary human chondrocytes) (from UniProt P28799 18-593) (ligand)
binds: [1] | [2]

recombinant GEP (granulin/epithelin precursor) (from UniProt P28799 18-593) (ligand)
binds: [3] | [4] | [5] | [6]
